The experiment addresses Sirtuin-6 (SIRT6), endogenous (human (endogenous in T24)) (UniProt Q8N6T7). As to the kind of experiment: co-IP; endogenous proteins, T24 cell lysate in 200 mM KCl, 20 mM Tris-HCl pH 7.9, 5 mM MgCl2, 10% glycerol, 0.2 mM EDTA, 0.1% NP-40; antibodies or control IgG overnight at 4 °C; western blot; both directions. A general note: A western blot detects proteins with antibodies after separation by electrophoresis.

The chains behind the UniProt entries cited, without tags or fusion partners.
UniProt Q8N6T7: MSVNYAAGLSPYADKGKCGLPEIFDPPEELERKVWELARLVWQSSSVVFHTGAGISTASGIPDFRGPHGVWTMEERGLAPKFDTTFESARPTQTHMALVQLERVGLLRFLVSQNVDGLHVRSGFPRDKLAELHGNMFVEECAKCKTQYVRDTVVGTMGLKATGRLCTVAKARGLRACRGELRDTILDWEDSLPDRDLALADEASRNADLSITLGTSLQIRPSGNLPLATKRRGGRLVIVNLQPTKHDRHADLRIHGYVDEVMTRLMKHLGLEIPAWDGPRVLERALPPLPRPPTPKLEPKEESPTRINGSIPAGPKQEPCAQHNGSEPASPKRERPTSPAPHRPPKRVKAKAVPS

No constants are given. Whether binding was seen depends on the method and setting. In cells and extracts the contact can be indirect. Some results given as binding are weak or reduced against the parent protein; the word gives no strength.

B1: UHRF1 (Ubiquitin-like, containing PHD and RING Finger domains 1), endogenous in T24 (protein, UniProt Q96T88 1-793)
chain: MWIQVRTMDGRQTHTVDSLSRLTKVEELRRKIQELFHVEPGLQRLFYRGKQMEDGHTLFDYEVRLNDTIQLLVRQSLVLPHSTKERDSELSDTDSGCCLGQSESDKSSTHGEAAAETDSRPADEDMWDETELGLYKVNEYVDARDTNMGAWFEAQVVRVTRKAPSRDEPCSSTSRPALEEDVIYHVKYDDYPENGVVQMNSRDVRARARTIIKWQDLEVGQVVMLNYNPDNPKERGFWYDAEISRKRETRTARELYANVVLGDDSLNDCRIIFVDEVFKIERPGEGSPMVDNPMRRKSGPSCKHCKDDVNRLCRVCACHLCGGRQDPDKQLMCDECDMAFHIYCLDPPLSSVPSEDEWYCPECRNDASEVVLAGERLRESKKKAKMASATSSSQRDWGKGMACVGRTKECTIVPSNHYGPIPGIPVGTMWRFRVQVSESGVHRPHVAGIHGRSNDGAYSLVLAGGYEDDVDHGNFFTYTGSGGRDLSGNKRTAEQSCDQKLTNTNRALALNCFAPINDQEGAEAKDWRSGKPVRVVRNVKGGKNSKYAPAEGNRYDGIYKVVKYWPEKGKSGFLVWRYLLRRDDDEPGPWTKEGKDRIKKLGLTMQYPEGYLEALANREREKENSKREEEEQQEGGFASPRTGKGKWKRKSAGGGPSRAGSPRRTSKKTKVEPYSLTAQQSSLIREDKSNAKLWNEVLASLKDRPASGSPFQLFLSKVEETFQCICCQELVFRPITTVCQHNVCKDCLDRSFRAQVFSCPACRYDLGRSYAMQVNQPLQTVLNQLFPGYGNGR
In the case of B1, the binding entry is “binds”.

These data come from publication PMC11663349.
